The target in this experiment is GFP-tagged p22-P149A (Atlantic salmon reovirus Canada-2009) (UniProt C0L0N0). As to the kind of experiment: co-IP.

These are yes or no findings as the source states them, for the method shown. Binding seen in cells or lysates may run through a third protein.

“Intersectin-1 (from UniProt Q15811 1-1721)”: the binding result is on record as “no binding”.
